# Source: the supplement of paper PMC12819154, “High-throughput peptide-centric local stability assay extends protein–ligand identification to membrane proteins, tissues and bacteria” (Nature Structural & Molecular Biology, 2025)
# By UniProt entry, the sequences of proteins in these tests, tags left out. Where a name states a change or a piece, a line headed by the entry shows the natural chain unless it says otherwise.
# UniProt Q9NPJ3: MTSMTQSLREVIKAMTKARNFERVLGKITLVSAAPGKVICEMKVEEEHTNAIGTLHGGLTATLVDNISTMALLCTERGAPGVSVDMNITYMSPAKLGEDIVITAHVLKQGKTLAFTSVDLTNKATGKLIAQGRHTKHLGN
# UniProt Q9H7M9, whole entry: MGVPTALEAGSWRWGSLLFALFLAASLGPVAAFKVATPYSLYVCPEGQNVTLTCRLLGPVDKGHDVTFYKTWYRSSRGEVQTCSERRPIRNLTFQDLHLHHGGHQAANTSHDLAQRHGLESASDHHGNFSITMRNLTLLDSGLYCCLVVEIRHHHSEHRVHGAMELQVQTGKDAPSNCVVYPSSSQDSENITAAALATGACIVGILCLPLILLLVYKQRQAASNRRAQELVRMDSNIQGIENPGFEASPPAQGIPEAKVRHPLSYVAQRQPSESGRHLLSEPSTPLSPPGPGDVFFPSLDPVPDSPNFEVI
# UniProt Q9HAY2: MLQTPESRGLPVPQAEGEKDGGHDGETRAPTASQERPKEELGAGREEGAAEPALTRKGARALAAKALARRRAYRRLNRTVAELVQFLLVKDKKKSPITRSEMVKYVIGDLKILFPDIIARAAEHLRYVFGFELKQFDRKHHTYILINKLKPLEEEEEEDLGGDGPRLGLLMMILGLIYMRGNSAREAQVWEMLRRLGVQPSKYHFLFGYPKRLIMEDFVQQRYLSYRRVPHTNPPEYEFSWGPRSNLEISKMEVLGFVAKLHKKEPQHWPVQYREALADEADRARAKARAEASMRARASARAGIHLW
# UniProt Q9H9T3: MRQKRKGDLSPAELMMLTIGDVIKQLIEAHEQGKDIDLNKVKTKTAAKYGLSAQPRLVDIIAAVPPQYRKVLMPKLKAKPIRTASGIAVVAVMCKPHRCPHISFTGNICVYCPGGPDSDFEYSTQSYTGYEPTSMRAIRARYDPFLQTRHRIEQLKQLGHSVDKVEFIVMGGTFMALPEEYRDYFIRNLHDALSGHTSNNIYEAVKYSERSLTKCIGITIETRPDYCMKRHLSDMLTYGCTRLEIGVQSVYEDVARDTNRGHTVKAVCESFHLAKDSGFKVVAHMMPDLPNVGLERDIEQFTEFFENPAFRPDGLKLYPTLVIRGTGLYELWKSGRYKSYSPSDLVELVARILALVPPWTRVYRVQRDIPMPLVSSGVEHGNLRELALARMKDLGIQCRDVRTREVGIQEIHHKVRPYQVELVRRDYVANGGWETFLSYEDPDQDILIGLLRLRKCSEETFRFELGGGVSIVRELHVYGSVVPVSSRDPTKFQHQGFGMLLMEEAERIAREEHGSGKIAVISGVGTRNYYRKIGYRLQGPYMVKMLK
# UniProt Q9H5V7: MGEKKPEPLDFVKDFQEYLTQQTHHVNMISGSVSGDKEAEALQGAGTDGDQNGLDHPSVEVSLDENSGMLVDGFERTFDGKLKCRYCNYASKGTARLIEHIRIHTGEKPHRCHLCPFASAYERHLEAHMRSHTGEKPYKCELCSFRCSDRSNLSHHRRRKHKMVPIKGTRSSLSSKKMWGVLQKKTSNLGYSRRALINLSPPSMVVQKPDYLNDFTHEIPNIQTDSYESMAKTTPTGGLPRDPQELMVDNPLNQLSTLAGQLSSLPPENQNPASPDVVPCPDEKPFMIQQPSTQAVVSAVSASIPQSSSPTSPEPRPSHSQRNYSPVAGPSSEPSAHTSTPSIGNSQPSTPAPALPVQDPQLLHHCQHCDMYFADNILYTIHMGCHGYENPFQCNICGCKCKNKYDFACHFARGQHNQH
# UniProt Q9NPF4: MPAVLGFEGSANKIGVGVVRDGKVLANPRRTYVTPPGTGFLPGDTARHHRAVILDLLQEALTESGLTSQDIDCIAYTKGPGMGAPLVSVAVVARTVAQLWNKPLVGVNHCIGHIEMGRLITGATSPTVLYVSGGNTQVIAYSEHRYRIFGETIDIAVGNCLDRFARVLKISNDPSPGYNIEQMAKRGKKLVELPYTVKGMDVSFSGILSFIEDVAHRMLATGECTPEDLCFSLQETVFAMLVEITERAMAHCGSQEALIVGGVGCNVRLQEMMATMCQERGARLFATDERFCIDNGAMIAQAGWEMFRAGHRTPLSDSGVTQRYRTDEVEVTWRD
# UniProt Q9NP97, whole entry: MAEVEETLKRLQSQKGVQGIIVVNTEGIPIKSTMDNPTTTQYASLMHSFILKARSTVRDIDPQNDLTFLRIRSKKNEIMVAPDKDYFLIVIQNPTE
# UniProt Q9H910: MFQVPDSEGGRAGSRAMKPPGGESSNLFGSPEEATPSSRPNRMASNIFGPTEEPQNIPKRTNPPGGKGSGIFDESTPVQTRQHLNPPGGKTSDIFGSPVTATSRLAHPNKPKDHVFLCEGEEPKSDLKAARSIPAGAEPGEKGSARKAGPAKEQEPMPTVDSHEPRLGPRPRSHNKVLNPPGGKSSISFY
# UniProt Q9HD15: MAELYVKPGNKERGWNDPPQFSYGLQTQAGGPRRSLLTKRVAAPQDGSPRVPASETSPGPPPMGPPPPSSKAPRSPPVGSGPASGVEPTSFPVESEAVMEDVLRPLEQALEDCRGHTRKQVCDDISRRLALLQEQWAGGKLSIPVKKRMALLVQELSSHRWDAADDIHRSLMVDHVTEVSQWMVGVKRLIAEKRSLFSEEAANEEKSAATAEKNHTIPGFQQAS
# UniProt Q9H9F9, whole entry: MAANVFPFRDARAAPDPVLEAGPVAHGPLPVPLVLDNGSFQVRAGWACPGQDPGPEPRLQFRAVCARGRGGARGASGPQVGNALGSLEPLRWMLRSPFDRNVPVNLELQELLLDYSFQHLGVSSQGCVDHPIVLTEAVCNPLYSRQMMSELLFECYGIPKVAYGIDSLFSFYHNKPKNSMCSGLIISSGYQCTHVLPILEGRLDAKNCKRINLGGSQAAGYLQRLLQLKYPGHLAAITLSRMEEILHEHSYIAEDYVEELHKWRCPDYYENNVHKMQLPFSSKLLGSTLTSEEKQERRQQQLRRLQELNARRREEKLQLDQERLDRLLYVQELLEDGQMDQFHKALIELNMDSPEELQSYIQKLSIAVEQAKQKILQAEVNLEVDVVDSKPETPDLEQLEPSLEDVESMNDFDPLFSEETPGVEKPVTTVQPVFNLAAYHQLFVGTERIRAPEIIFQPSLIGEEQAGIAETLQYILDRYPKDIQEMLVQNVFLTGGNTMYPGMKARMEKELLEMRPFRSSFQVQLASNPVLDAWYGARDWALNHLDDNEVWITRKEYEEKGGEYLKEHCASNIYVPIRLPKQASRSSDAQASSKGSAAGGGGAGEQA
# UniProt Q9H4L4: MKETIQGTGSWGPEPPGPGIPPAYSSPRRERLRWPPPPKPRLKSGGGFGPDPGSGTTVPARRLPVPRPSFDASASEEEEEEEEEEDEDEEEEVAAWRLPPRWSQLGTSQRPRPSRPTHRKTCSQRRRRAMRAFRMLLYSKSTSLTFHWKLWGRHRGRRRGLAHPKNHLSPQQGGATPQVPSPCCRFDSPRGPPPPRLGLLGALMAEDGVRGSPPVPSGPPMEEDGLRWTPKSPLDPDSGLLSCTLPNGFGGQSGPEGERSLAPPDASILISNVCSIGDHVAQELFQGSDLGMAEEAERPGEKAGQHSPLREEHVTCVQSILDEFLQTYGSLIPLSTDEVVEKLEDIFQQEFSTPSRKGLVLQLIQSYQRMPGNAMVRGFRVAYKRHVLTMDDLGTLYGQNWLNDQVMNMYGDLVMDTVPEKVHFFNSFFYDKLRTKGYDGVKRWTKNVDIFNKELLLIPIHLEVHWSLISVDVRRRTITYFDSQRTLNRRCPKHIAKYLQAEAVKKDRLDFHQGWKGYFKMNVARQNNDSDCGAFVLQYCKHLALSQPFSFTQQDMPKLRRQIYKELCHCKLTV
# Some of the results follow. Most values lie at the level of the controls, where differences are scatter.
# Compound: CN[C@@H]1C[C@H]2O[C@@](C)([C@@H]1OC)n1c3ccccc3c3c4c(c5c6ccccc6n2c5c31)C(=O)NC4 [staurosporine]
# Test: log2 fold change of tryptic peptide abundance, ligand vs vehicle (limited proteolysis) (log2 ratio); higher = more trypsin-susceptible (destabilized)
# Details: ligand concentration: 20 uM; sample: K562 cleared lysate; digestion: 4 min, 22 C (HT-PELSA RT4min, Orbitrap Astral)
row,Target,log2 fold change
1,"UniProt Q9NPJ3 (peptide sequence: ITLVSAAPGK, peptide start residue: 28)",0.372
2,"UniProt Q9H7M9 (peptide sequence: VRHPLSYVAQR, peptide start residue: 259)",0.0543
3,"MAGEF1 (peptide sequence: MEVLGFVAK, peptide start residue: 252) (UniProt Q9HAY2)",-0.0348
4,"ELP3 (peptide sequence: RKGDLSPAELMMLTIGDVIK, peptide start residue: 5) (UniProt Q9H9T3)",-0.429
5,"UniProt Q9H5V7 (peptide sequence: CELCSFR, peptide start residue: 140)",-0.369
6,"OSGEP (peptide sequence: TPLSDSGVTQR, peptide start residue: 313) (UniProt Q9NPF4)",0.287
7,"DYNLRB1 (peptide sequence: STVRDIDPQNDLTFLR, peptide start residue: 55) (UniProt Q9NP97)",0.352
8,"JPT2 (peptide sequence: QHLNPPGGK, peptide start residue: 82) (UniProt Q9H910)",0.158
9,"SRA1 (peptide sequence: SLMVDHVTEVSQWMVGVKR, peptide start residue: 170) (UniProt Q9HD15)",0.352
10,"ACTR5 (peptide sequence: LLGSTLTSEEKQER, peptide start residue: 284) (UniProt Q9H9F9)",0.0714
11,"SENP3 (peptide sequence: HLALSQPFSFTQQDMPK, peptide start residue: 542) (UniProt Q9H4L4)",1.01
